These are yes or no findings as the source states them, for the method shown. Binding seen in cells or lysates may run through a third protein. A yes stands for co-enrichment or nearness to the bait. Other partners may have been found.
Target: T1, KDM2A (mouse (endogenous in c-KIT+ spermatogonia of mouse testes)) (UniProt P59997)
T1 sequence: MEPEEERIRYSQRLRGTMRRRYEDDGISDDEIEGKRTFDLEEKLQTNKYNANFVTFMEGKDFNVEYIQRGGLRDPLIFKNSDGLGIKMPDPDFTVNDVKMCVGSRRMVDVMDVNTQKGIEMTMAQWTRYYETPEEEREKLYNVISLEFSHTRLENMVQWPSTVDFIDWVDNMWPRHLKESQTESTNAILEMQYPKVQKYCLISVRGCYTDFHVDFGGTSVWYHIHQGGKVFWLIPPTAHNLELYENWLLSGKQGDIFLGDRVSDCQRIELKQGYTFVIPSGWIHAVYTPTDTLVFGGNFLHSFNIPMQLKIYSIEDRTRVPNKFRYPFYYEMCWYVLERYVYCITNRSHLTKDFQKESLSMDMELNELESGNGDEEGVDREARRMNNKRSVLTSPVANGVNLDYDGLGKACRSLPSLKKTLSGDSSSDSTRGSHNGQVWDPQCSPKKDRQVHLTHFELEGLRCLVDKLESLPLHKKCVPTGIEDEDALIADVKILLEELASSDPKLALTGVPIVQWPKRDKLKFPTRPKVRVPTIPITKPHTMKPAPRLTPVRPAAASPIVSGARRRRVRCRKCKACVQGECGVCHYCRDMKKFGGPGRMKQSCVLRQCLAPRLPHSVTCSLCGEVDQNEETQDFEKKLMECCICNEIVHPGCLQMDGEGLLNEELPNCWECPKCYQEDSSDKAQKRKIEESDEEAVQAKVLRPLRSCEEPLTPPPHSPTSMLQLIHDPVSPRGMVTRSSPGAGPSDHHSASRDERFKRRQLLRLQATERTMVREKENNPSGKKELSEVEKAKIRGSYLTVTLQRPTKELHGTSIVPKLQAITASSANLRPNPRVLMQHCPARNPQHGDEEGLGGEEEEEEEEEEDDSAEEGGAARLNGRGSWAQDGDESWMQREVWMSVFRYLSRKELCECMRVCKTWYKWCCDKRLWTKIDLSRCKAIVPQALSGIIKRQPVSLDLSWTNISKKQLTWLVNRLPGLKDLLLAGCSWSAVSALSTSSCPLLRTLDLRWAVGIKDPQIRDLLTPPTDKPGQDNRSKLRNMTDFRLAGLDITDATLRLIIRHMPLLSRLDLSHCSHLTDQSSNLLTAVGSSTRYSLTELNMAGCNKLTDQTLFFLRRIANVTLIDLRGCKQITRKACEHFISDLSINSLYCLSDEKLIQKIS
Test: affinity purification with mass spectrometry; IP with the KDM2A antibody from lysate of purified c-KIT+ germ cells, protein A/G magnetic beads, elution at 70 °C, LTQ Orbitrap Velos

Sequences of proteins named here, by UniProt entry; tags and fusion partners are left off.
UniProt Q61501: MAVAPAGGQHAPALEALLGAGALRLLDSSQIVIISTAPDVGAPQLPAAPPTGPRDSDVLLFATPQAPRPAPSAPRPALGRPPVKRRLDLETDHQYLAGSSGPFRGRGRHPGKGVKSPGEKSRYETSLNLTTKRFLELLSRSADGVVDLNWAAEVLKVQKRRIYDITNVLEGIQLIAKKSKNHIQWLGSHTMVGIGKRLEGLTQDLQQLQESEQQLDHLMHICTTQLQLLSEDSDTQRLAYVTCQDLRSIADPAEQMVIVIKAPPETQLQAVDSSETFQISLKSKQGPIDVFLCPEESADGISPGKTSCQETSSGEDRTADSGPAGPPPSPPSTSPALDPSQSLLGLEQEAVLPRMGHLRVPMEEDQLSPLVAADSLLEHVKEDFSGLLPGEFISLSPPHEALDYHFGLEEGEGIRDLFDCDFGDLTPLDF

binding	Substance
binds	E2F1 (from UniProt Q61501 1-430)
binds	HCFC1
